This passage reports binding results from publication PMC11188874, “HDAC6 Inhibition Releases HR23B to Activate Proteasomes, Expand the Tumor Immunopeptidome and Amplify T-cell Antimyeloma Activity” (Cancer Research Communications, 2024).

By UniProt entry, the sequences of proteins in these tests, tags left out.
UniProt O00487: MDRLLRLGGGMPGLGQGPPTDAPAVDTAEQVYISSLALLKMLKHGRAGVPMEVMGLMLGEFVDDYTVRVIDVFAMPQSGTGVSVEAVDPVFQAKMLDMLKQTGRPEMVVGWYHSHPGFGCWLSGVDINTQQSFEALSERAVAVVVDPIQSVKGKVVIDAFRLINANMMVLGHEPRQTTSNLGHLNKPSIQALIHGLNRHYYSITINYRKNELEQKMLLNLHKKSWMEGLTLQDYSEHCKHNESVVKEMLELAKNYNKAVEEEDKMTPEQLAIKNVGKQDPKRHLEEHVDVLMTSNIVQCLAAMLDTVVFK
UniProt Q9UBN7: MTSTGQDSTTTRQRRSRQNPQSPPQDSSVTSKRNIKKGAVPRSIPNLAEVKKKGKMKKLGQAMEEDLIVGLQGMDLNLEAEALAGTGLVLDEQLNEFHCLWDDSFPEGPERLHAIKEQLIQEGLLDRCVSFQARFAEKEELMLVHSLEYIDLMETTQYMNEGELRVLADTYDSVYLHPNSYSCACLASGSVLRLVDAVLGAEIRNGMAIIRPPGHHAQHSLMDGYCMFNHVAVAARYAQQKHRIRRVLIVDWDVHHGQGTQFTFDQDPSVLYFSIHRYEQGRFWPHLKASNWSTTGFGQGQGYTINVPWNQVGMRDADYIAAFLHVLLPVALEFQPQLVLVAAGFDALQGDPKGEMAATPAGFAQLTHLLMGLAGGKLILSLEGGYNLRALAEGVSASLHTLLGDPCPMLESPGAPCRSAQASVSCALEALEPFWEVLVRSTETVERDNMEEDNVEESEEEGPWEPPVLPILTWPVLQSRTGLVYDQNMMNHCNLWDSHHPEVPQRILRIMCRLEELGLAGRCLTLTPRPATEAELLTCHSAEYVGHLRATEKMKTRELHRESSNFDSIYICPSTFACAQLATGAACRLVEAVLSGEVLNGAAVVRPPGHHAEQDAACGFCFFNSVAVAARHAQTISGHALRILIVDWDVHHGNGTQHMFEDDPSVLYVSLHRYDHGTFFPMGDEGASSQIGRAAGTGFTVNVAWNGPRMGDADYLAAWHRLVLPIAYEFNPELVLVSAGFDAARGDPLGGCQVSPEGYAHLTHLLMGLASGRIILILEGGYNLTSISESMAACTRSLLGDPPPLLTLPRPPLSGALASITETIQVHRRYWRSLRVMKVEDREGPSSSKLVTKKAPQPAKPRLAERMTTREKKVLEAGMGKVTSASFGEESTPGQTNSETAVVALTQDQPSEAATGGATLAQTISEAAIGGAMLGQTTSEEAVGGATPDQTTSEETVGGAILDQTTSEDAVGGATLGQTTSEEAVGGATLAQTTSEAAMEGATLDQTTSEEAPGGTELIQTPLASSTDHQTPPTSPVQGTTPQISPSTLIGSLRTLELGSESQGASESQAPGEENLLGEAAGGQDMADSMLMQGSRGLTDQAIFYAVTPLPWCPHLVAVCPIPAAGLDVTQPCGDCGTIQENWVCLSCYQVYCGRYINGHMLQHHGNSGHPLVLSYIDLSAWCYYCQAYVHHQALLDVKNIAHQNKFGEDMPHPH
UniProt P54727: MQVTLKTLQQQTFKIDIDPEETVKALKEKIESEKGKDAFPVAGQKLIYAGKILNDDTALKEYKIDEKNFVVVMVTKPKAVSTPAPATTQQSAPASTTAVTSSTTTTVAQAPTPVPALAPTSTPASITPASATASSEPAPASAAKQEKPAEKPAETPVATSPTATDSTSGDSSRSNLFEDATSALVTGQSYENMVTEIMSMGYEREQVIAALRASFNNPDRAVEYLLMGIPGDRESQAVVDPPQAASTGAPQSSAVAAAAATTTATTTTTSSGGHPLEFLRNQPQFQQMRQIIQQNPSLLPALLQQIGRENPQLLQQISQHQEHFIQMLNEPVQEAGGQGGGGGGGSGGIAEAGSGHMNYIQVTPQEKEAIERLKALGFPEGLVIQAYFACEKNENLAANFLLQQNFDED
UniProt P54725: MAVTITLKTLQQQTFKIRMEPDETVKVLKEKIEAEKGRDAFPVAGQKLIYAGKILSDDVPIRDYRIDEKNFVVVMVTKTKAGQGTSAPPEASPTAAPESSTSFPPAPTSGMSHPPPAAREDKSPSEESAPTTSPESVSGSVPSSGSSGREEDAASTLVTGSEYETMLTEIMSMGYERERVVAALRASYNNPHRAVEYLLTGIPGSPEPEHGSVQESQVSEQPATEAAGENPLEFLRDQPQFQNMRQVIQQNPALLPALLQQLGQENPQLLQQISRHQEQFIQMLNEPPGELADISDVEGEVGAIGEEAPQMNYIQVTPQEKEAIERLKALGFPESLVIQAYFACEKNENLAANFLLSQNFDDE

These are yes or no findings as the source states them, for the method shown. Binding seen in cells or lysates may run through a third protein. Some results given as binding are weak or reduced against the parent protein; the word gives no strength.

One assay deals with Flag-HA-PSMD14 (UniProt O00487). As to the kind of experiment: co-IP; RPMI-8226 cells expressing FLAG-tagged PSMD14, treated or not with HDAC6 inhibitors; precipitated with a FLAG-specific antibody; blots probed for HR23A and HR23B.
Assay [1] has as its target full-length, WT FLAG-tagged HDAC6 (in RPMI-8226 cells) (human) (UniProt Q9UBN7). Briefly: co-IP; RPMI-8226 cells transfected with FLAG-tagged HDAC6, treated or not with HDAC6 inhibitors (1 µmol/L, 24 hours); lysates under nondenaturing conditions; precipitated with a FLAG-specific antibody; blots probed for HR23A and HR23B.
The target of assay [2] is FLAG-tagged full-length, WT HDAC6 (pcDNA-HDAC6-FLAG) (human) (UniProt Q9UBN7). As to the kind of experiment: co-IP; HeLa HDAC6-KO cells transfected with FLAG-tagged HDAC6 constructs, harvested after 48 hours; lysates under nondenaturing conditions; Pierce anti-DYKDDDDK affinity resin 2 hours at 4°C, elution with 3X DYKDDDDK peptide; immunoblots with anti-FLAG or HR23B antibodies. (In general: In western blotting, separated proteins are transferred to a membrane and probed.)

In the case of “HR23B (endogenous, RPMI-8226) (from UniProt P54727 1-409)”, the binding entry (with Flag-HA-PSMD14; in assay [1]) was “binds” in each case.

Take “HR23A (endogenous, RPMI-8226) (from UniProt P54725 1-363)”: the binding result in assay [1] is given as “binds”. Consider “HR23B (endogenous, HeLa) (from UniProt P54727 1-409)”, for which the binding result in assay [2] was “binds”.
